Measurements from patent US12427192B2, “Water soluble adjuvant and composition containing same” (Sumitomo Pharma Co., Ltd., priority 2019, dated 2025).
For at least one compound, name, drawing or mass did not settle the structure.

System: HLA-A*02:01 transgenic mouse
Assay: Test 9: in vivo adjuvant activity, cocktail vaccine b, IFNγ ELISPOT
Settings: added to cocktail vaccine b; Peptide SEQ ID No. 1 or SEQ ID No. 4; 0.4 nmol per body, twice; FIG. 6 and 7
Method: Evaluation of In Vivo Adjuvant Activity in HLA-A*02:01 Transgenic Mouse
The in vivo adjuvant activity of the compounds prepared in Examples 8, 9, and 10 and the compound prepared in Reference example 12 was evaluated in the following procedure. To cocktail vaccine b comprising Compound of formula 4 prepared in Reference example 8 and Peptide SEQ ID No. 3 prepared in Reference example 3 with Montanide ISA51 VG was added the compound prepared in Example 8, 9, or 10, or the compound prepared in Reference example 12 to prepare each vaccine. The vaccine was administered to a HLA-A*02:01 transgenic mouse, and the adjuvant activity of each vaccine was evaluated by the method of testing antigen-specific CTL induction.
Specifically, Compound of formula 4 and Peptide SEQ ID No. 3 were dissolved in DMSO, and then diluted with water for injection to concentrations of Compound of formula 4 of 3 mg/mL and Peptide SEQ ID No. 3 of 2.25 mg/mL. The diluted peptide solution was mixed and emulsified with an equal volume of Montanide ISA 51 VG to prepare cocktail vaccine b. Cocktail vaccine b was injected to mice intradermally at the tail base area in an amount for administering 300 μg of Compound of formula 4 per body and 225 μg of Peptide SEQ ID No. 3 per body. […] Then, after removal of the supernatant from the wells, stained spots on the ELISPOT plate were counted.

**Q.** For `CCCCCNc1nc(N)nc(C)c1Cc1ccc(CN(C)CCOCCOCCOCCOCCOCCOCCOCCOCCOCCOCCOCCOCCOCCOCCOCCOCCOCCOCCOCCOCCOCCOCCOCCOCCOCCOCCOCCOCCOCCOCCOCCOCCOCCOCCOCCO)cc1OC` [Example 10, 1-(4-{[2-amino-4-methyl-6-(pentylamino)pyrimidin-5-yl]methyl}-3-methoxyphenyl)-2-methyl-5,8,11,14,17,20,23,26,29,32,35,38,41,44,47,50,53,56,59,62,65,68,71,74,77,80,83,86,89,92,95,98,101,104,107-pentatriacontaoxa-2-azanonahectan-109-ol], which “CTL counts responsive to the peptide compared with Reference example 12” value is on record?
**A.** more

**Q.** What about the “CTL counts responsive to the peptide compared with adding no compound” value of the same compound?
**A.** more
